Experimental data taken from patent US20250283871A1, “COMPOSITIONS AND METHODS FOR MODULATING THE INTERACTION BETWEEN SS18-SSX FUSION ONCOPROTEIN AND NUCLEOSOMES” (Dana-Farber Cancer Institute, Inc., priority 2020, published 2025).

B1: NOC3L (protein, UniProt Q8WTT2 1-800, looked up)
Nucleolar complex protein 3 …: MKARRNKKQIPSFRKLIKTSKVKLENKLKNKQFKQQSTLKKYRKEQRKLRQAVKDAVSKKPIPLENPKEKRPGKRIEREEEEEEEALPLDMMDEDDLQLMKDLGQRVSFLTRDLSSSEPVHAKKRKHERIIDKYEKIPRTLQTAPEKELIHLLPIKDKSGIIPQTREKPVTDSNKDEEDQEEERELEEEIIEDPIQELTIEEHLIERKKKLQEKKMHIAALASAILSDPENNIKKLKELRSMLMEQDPDVAVTVRKLVIVSLMELFKDITPSYKIRPLTEAEKSTKTRKETQKLREFEEGLVSQYKFYLENLEQMVKDWKQRKLKKSNVVSLKAYKGLAEVAVKSLCELLVALPHFNFHNNIIVLIVPLMNDMSKLISEMCCEAVKKLFKQDKLGQASLGVIKVISGFVKGRNYEVRPEMLKTFLCLRIKEVEVKKDTEDINKPKKFMTFKEKRKSLSRMQRKWKKAEEKLERELREAEASESTEKKLKLHTETLNIVFVTYFRILKKAQRSPLLPAVLEGLAKFAHLINVEFFDDLLVVLHTLIESGDLSYQESLHCVQTAFHILSGQGDVLNIDPLKFYTHLYKTLFKLHAGATNEGVEIVLQCLDVMLTKRRKQVSQQRALAFIKRLCTLALHVLPNSSIGILATTRILMHTFPKTDLLLDSESQGSGVFLPELDEPEYCNAQNTALWELHALRRHYHPIVQRFAAHLIAGAPSEGSGALKPELSRRSATELFEAYSMAEMTFNPPVESSNPKIKGKFLQGDSFLNEDLNQLIKRYSSEVATESPLDFTKYLKTSLH
B2: PWP2 (protein, UniProt Q15269 1-919, looked up)
Periodic tryptophan protein 2 …: MKFAYRFSNLLGTVYRRGNLNFTCDGNSVISPVGNRVTVFDLKNNKSDTLPLATRYNVKCVGLSPDGRLAIIVDEGGDALLVSLVCRSVLHHFHFKGSVHSVSFSPDGRKFVVTKGNIAQMYHAPGKKREFNAFVLDKTYFGPYDETTCIDWTDDSRCFVVGSKDMSTWVFGAERWDNLIYYALGGHKDAIVACFFESNSLDLYSLSQDGVLCMWQCDTPPEGLRLKPPAGWKADLLQREEEEEEEEDQEGDRETTIRGKATPAEEEKTGKVKYSRLAKYFFNKEGDFNNLTAAAFHKKSHLLVTGFASGIFHLHELPEFNLIHSLSISDQSIASVAINSSGDWIAFGCSGLGQLLVWEWQSESYVLKQQGHFNSMVALAYSPDGQYIVTGGDDGKVKVWNTLSGFCFVTFTEHSSGVTGVTFTATGYVVVTSSMDGTVRAFDLHRYRNFRTFTSPRPTQFSCVAVDASGEIVSAGAQDSFEIFVWSMQTGRLLDVLSGHEGPISGLCFNPMKSVLASASWDKTVRLWDMFDSWRTKETLALTSDALAVTFRPDGAELAVATLNSQITFWDPENAVQTGSIEGRHDLKTGRKELDKITAKHAAKGKAFTALCYSADGHSILAGGMSKFVCIYHVREQILMKRFEISCNLSLDAMEEFLNRRKMTEFGNLALIDQDAGQEDGVAIPLPGVRKGDMSSRHFKPEIRVTSLRFSPTGRCWAATTTEGLLIYSLDTRVLFDPFELDTSVTPGRVREALRQQDFTRAILMALRLNESKLVQEALEAVPRGEIEVVTSSLPELYVEKVLEFLASSFEVSRHLEFYLLWTHKLLMLHGQKLKSRAGTLLPVIQFLQKSIQRHLDDLSKLCSWNHYNMQYALAVSKQRGTKRSLDPLGSEEEAEASEDDSLHLLGGGGRDSEEEMLA
B3: WDR43 (protein)
chain: MAAGGGGSCDPLAPAGVPCAFSPHSQAYFALASTDGHLRVWETANNRLHQEYVPSAHLSGTCTCLAWAPARLQAKESPQRKKRKSEAVGMSNQTDLLALGTAVGSILLYSTVKGELHSKLISGGHDNRVNCIQWHQDSGCLYSCSDDKHIVEWNVQTCKVKCKWKGDNSSVSSLCISPDGKMLLSAGRTIKLWVLETKEVYRHFTGHATPVSSLMFTTIRPPNESQPFDGITGLYFLSGAVHDRLLNVWQVRSENKEKSAVMSFTVTDEPVYIDLTLSENKEEPVKLAVVCRDGQVHLFEHILNGYCKKPLTSNCTIQIATPGKGKKSTPKPIPILAAGFCSDKMSLLLVYGSWFQPTIERVALNSREPHMCLVRDISNCWAPKVETAITKVRTPVMNSEAKVLVPGIPGHHAAIKPAPPQTEQVESKRKSGGNEVSIEERLGAMDIDTHKKGKEDLQTNSFPVLLTQGLESNDFEMLNKVLQTRNVNLIKKTVLRMPLHTIIPLLQELTKRLQGHPNSAVLMVQWLKCVLTVHASYLSTLPDLVPQLGTLYQLMESRVKTFQKLSHLHGKLILLITQVTASEKTKGATSPGQKAKLVYEEESSEEESDDEIADKDSEDNWDEDEEESESEKDEDVEEEDEDAEGKDEENGEDRDTASEKELNGDSDLDPENESEEE
B4: UTP15 (protein, UniProt Q8TED0 2-518, looked up)
U3 small nucleolar …: AGYKPVAIQTYPILGEKITQDTLYWNNYKTPVQIKEFGAVSKVDFSPQPPYNYAVTASSRIHIYGRYSQEPIKTFSRFKDTAYCATFRQDGRLLVAGSEDGGVQLFDISGRAPLRQFEGHTKAVHTVDFTADKYHVVSGADDYTVKLWDIPNSKEILTFKEHSDYVRCGCASKLNPDLFITGSYDHTVKMFDARTSESVLSVEHGQPVESVLLFPSGGLLVSAGGRYVKVWDMLKGGQLLVSLKNHHKTVTCLCLSSSGQRLLSGSLDRKVKVYSTTSYKVVHSFDYAASILSLALAHEDETIVVGMTNGILSVKHRKSEAKKESLPRRRRPAYRTFIKGKNYMKQRDDILINRPAKKHLELYDRDLKHFRISKALDRVLDPTCTIKTPEITVSIIKELNRRGVLANALAGRDEKEISHVLNFLIRNLSQPRFAPVLINAAEIIIDIYLPVIGQSPVVDKKFLLLQGLVEKEIDYQRELLETLGMMDMLFATMRRKEGTSVLEHTSDGFPENKKIES
B5: EHMT2 (protein, UniProt Q96KQ7 2-1210, looked up)
Histone-lysine …: AAAAGAAAAAAAEGEAPAEMGALLLEKETRGATERVHGSLGDTPRSEETLPKATPDSLEPAGPSSPASVTVTVGDEGADTPVGATPLIGDESENLEGDGDLRGGRILLGHATKSFPSSPSKGGSCPSRAKMSMTGAGKSPPSVQSLAMRLLSMPGAQGAAAAGSEPPPATTSPEGQPKVHRARKTMSKPGNGQPPVPEKRPPEIQHFRMSDDVHSLGKVTSDLAKRRKLNSGGGLSEELGSARRSGEVTLTKGDPGSLEEWETVVGDDFSLYYDSYSVDERVDSDSKSEVEALTEQLSEEEEEEEEEEEEEEEEEEEEEEEEDEESGNQSDRSGSSGRRKAKKKWRKDSPWVKPSRKRRKREPPRAKEPRGVNGVGSSGPSEYMEVPLGSLELPSEGTLSPNHAGVSNDTSSLETERGFEELPLCSCRMEAPKIDRISERAGHKCMATESVDGELSGCNAAILKRETMRPSSRVALMVLCETHRARMVKHHCCPGCGYFCTAGTFLECHPDFRVAHRFHKACVSQLNGMVFCPHCGEDASEAQEVTIPRGDGVTPPAGTAAPAPPPLSQDVPGRADTSQPSARMRGHGEPRRPPCDPLADTIDSSGPSLTLPNGGCLSAVGLPLGPGREALEKALVIQESERRKKLRFHPRQLYLSVKQGELQKVILMLLDNLDPNFQSDQQSKRTPLHAAAQKGSVEICHVLLQAGANINAVDKQQRTPLMEAVVNNHLEVARYMVQRGGCVYSKEEDGSTCLHHAAKIGNLEMVSLLLSTGQVDVNAQDSGGWTPIIWAAEHKHIEVIRMLLTRGADVTLTDNEENICLHWASFTGSAAIAEVLLNARCDLHAVNYHGDTPLHIAARESYHDCVLLFLSRGANPELRNKEGDTAWDLTPERSDVWFALQLNRKLRLGVGNRAIRTEKIICRDVARGYENVPIPCVNGVDGEPCPEDYKYISENCETSTMNIDRNITHLQHCTCVDDCSSSNCLCGQLSIRCWYDKDGRLLQEFNKIEPPLIFECNQACSCWRNCKNRVVQSGIKVRLQLYRTAKMGWGVRALQTIPQGTFICEYVGELISDAEADVREDDSYLFDLDNKDGEVYCIDARYYGNISRFINHLCDPNIIPVRVFMLHQDLRFPRIAFFSSRDIRTGEELGFDYGDRFWDIKSKYFTCQCGSEKCKHSAEAIALEQSRLARLDPHPELLPELGSLPPVNT
B6: UTP3 (protein, UniProt Q9NQZ2 1-479, looked up)
Something about silencing …: MVGRSRRRGAAKWAAVRAKAGPTLTDENGDDLGLPPSPGDTSYYQDQVDDFHEARSRAALAKGWNEVQSGDEEDGEEEEEEVLALDMDDEDDEDGGNAGEEEEEENADDDGGSSVQSEAEASVDPSLSWGQRKKLYYDTDYGSKSRGRQSQQEAEEEEREEEEEAQIIQRRLAQALQEDDFGVAWVEAFAKPVPQVDEAETRVVKDLAKVSVKEKLKMLRKESPELLELIEDLKVKLTEVKDELEPLLELVEQGIIPPGKGSQYLRTKYNLYLNYCSNISFYLILKARRVPAHGHPVIERLVTYRNLINKLSVVDQKLSSEIRHLLTLKDDAVKKELIPKAKSTKPKPKSVSKTSAAACAVTDLSDDSDFDEKAKLKYYKEIEDRQKLKRKKEENSTEEQALEDQNAKRAITYQIAKNRGLTPRRKKIDRNPRVKHREKFRRAKIRRRGQVREVRKEEQRYSGELSGIRAGVKKSIKLK

System: BAF complex subunits and histone proteins
Assay: Mass spectrometry proteomics of purified HA-SS18 WT and HA-SS18-SSX1 complexes (Tables 5A-5E)
Parameters: species or system human
Conditions: HEK-293T
[1] = HA-SS18SSX1_CHR_peptides: protein identified in the HA-SS18-SSX1 purification from solubilized chromatin (CHR)
[2] = HA-SS18WT_CHR_peptides: HA-SS18 WT purification from nuclease-treated solubilized chromatin (CHR), label = protein identified
[3] = HA-SS18SSX1_NE_peptides (Table 5B), HA-SS18-SSX1 BAF complex purification from soluble nuclear extract
[4] = HA-SS18SSX1 purification, NE (soluble nuclear extract) fraction, peptides per identified protein
[5] = HA-SS18WT_NE_peptides: HA-SS18 WT complexes purified from nuclear extract (NE), label = protein identified (Gene Symbol)
[6] = HA-SS18WT_CHR_peptides: protein identified in HA-SS18 WT BAF complex purification from nuclease-treated solubilized chromatin (CHR)

Molecule	Total (total peptides) [1]	Unique (unique peptides) [1]	Total (peptides) [2]	Unique (peptides) [2]	Total (peptides) [3]	Unique (peptides) [3]	Total (total peptides) [4]	Unique (unique peptides) [4]	Total (peptides) [5]	Unique (peptides) [5]	Total (total peptides) [6]	Unique (unique peptides) [6]
B1	6	6	8	8	–	–	–	–	–	–	–	–
B2	6	6	5	5	1	1	–	–	–	–	–	–
B3	6	6	3	3	–	–	–	–	–	–	–	–
B4	6	6	5	5	–	–	4	4	6	6	–	–
B5	6	6	4	3	–	–	–	–	–	–	–	–
B6	6	6	–	–	–	–	–	–	–	–	1	1
